# Values from PubChem BioAssay AID504784 (Drosophila RNAi Screening Center, 2011).
# Aim: 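Fly genes whose silencing alters how much lipid cells keep in droplets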 (primary screen)
# Cell system: Drosophila Kc167 embryonic cells
# Reagents: long dsRNA against Drosophila genes, about 250 ng dsRNA per well
# Time to read-out: 4 days
# Challenge: cells fed 400 µM oleic acid bound to BSA
# Detection: 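Microscope images give a droplet-to-nucleus area ratio, taken as log and converted to a screen-wide B-score; higher values mean greater lipid storage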
# Scale: droplet/nuclear area B-score: higher = more stored lipid (overstorage)
# The screen tested about 17,000 reagents; below is a random part of those with a known target gene and a result. 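Each column is one replicate's B-score; the combined score over replicates was not deposited, so single values may mislead.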
Target gene,amplicon,"droplet/nuclear area B-score, replicate 1","droplet/nuclear area B-score, replicate 2","droplet/nuclear area B-score, replicate 3"
CG11000,DRSC12158,-0.97,-2.22,
Osi18 (Osiris 18),DRSC12181,1.75,-1.01,
CG15537,DRSC15073,1.53,-2.73,
CG31287,DRSC13138,-0.903,0.56,
CycD (Cyclin D),DRSC20233,-0.343,-0.00033,
sesB (stress-sensitive B),DRSC20371,3.47,3.62,0.918
CG1371,DRSC06409,1.03,0.506,
dgt3 (dim gamma-tubulin 3),DRSC04349,-1.77,0.778,
ImpE2 (Ecdysone-inducible gene E2),DRSC08665,-0.353,-0.821,
RpS3A (Ribosomal protein S3A),DRSC17168,3.22,2.09,
CG14971,DRSC08430,-1.57,0.668,
Gr22d (retired record),DRSC21653,-0.41,-1.05,
CG32683,DRSC17990,-0.934,1.39,-0.885
CG32683,DRSC18232,1.46,-0.199,0.39
CG32683,DRSC18233,0.933,1.44,1.25
CG31262,DRSC13216,0.00933,-0.00446,
CG9667,DRSC16535,-0.0598,0.586,

A few values from the entries so far:
For “droplet/nuclear area B-score, replicate 2”, RpS3A (Ribosomal protein S3A) [DRSC17168] has 2.09
Entry of CG31287 [DRSC13138] under “droplet/nuclear area B-score, replicate 1”: -0.903
ImpE2 (Ecdysone-inducible gene E2) [DRSC08665], droplet/nuclear area B-score, replicate 1: -0.353
